The list shows a part of the results. Shown are side measurements of this screen, not its main read-out; they come without a call. The list favours compounds with an active or inconclusive main result. Words in brackets tell the shape of the fitted curve; partial curves, single points and poor fits give uncertain potencies.
Assay: qHTS Assay for Lipid Storage Modulators in Drosophila S3 Cells;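 on cell number change: cells counted by Cell Tracker Red CMTPX staining in the red channel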
Details: BODIPY lipid droplet fluorescence, 18-24 h; for cell number change: measured here: cell count max response, cells fed with added oleic acid
In short: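 Laser-scanning cytometry quantifies lipid droplet accumulation (500–530 nm total intensity; droplet/cell object ratio) in oleic acid-fed (400 uM added) Drosophila S3 cells treated with a concentration series. 20 uM Triacsin C defined 100% inhibition.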

[1] = measured here: lipid fluorescence (Fed channel) AC50, cells fed with added oleic acid
[2] = measured here: cell number channel AC50, cells fed with added oleic acid

Structure (SMILES)	AC50 [1]	cell number change [%]	AC50 [2]
COc1ccc(OC)c(N(CC(=O)NCCSC2CCCCC2)S(=O)(=O)c2ccccc2)c1	13 µM [falling, partial curve]	–	–
Cc1cc(C(F)(F)F)nc(SCC(=O)NC2CCCCC2)n1	–	-2.63	–
O=C(O)C1C2C=CC(C2)C1C(=O)NCc1ccccn1 (configuration not stated)	0.092 µM [falling, full curve, poor fit]	6.62	–
COc1ccc2nc(Nc3nc(C)c(CCC(C)C)c(=O)[nH]3)nc(C)c2c1	0.206 µM [rising, full curve]	-3.5	–
Cc1cc(-c2ccccc2)nc(SCc2ccc(C(=O)O)o2)n1	18.4 µM [falling, partial curve]	-54.6	13 µM [falling, partial curve]
COC(=O)c1ccccc1NC(=O)CN(C)Cc1ccccc1	23.1 µM [rising, partial curve]	47.9	2.91 µM [rising, partial curve]
COc1ccc(OC)c(N2CC(O)(c3cccs3)[N+]3=C2SCCC3)c1 (configuration not stated)	–	5.65	–
COc1ccc(C(=O)NC2CCCc3c2cnn3-c2cccc(C)c2C)c(OC)n1 (configuration not stated)	29.1 µM [falling, single point]	-55.9	1.84 µM [falling, full curve]
O=C(NC(Cc1c[nH]c2ccccc12)C(=O)N/N=C/c1ccc(Cl)cc1)c1cccs1 (configuration not stated)	23.1 µM [rising, partial curve]	64	–
Cc1cccc(N(CC(O)CN2CCCC2)S(=O)(=O)c2ccccc2)c1 (configuration not stated)	–	7.14	–
O=C(O)c1ccc(NC(=S)N2CCCCC2)cc1	2.59 µM [falling, single point]	-15.5	–
Cc1nn(-c2ccccc2)c2sc(-c3n[nH]c(=S)o3)cc12	6.51 µM [rising, single point]	–	–
O=C(NCCC1CCCCN1S(=O)(=O)c1ccc(Cl)cc1)C(=O)NCCN1CCOCC1 (configuration not stated)	0.92 µM [falling, full curve]	–	3.26 µM [falling, single point]
CCCn1nc(NS(=O)(=O)c2cccc3nonc23)c2cc3ccccc3nc21	23.1 µM [falling, single point]	-4.28	–
Cc1ccccc1C(=O)N1CCN(c2ccc(NC(=O)c3ccc4c(c3)OCCO4)cc2)CC1	–	-5.96	–
COC(=O)Cn1c2ccccc2c2nc(=O)cc(C)n21	0.092 µM [falling, partial curve, poor fit]	6.37	0.103 µM [falling, partial curve, poor fit]
O=C(O)CCC(=O)Nc1cccc(-c2csc(-c3ccccc3)n2)c1	32.6 µM [falling, single point]	-13.2	–
Cc1ccc(NC(=O)c2ccccc2F)cc1S(=O)(=O)N1CCCCCC1	0.651 µM [rising, partial curve]	35.5	0.082 µM [rising, full curve]
COc1ccc(C(=O)Oc2cc(C)[nH]c(=O)c2[N+](=O)[O-])c(OC)c1	6.51 µM [falling, single point]	5.39	–
C=CCNC(=O)C(=O)NCCOc1ccccc1Cl	–	–	3.26 µM [rising, single point]
CCOc1ccccc1NC(=O)C1C2CCC3C(CCC21)C3(Cl)Cl (configuration not stated)	15.8 µM [rising, single point]	9.22	–
COC(=O)C(Cc1ccccc1)NC(=O)CC(C)CC(=O)Nc1ccc(OC)cc1OC (configuration not stated)	10.3 µM [falling, partial curve]	-29.6	–
CCN(CC)S(=O)(=O)c1ccc(-c2ccc(S(=O)(=O)N(CC)CC)cc2)cc1	9.2 µM [rising, partial curve]	8.6	–
CCCc1ccc2oc(C(=O)NCCc3cnn(C)c3)c(C)c2c1	0.00461 µM [rising, full curve, poor fit]	10.2	–
COc1cc(/C=N\NC(=O)c2ccc(-c3ccccc3)cc2)cc(Br)c1O	9.2 µM [falling, partial curve]	-47.8	14.6 µM [falling, partial curve]
COC(=O)c1cc2nc(-c3ccccc3)cc(C)n2n1	9.2 µM [rising, partial curve]	14	–
COc1nc(Nc2cccc(C)c2)nc(N2CCCCC2)n1	–	-39.6	18.4 µM [falling, single point]
COC(=O)CCC(C)N1CCC(Oc2ccc(C(=O)NCc3ccccn3)cc2)CC1 (configuration not stated)	–	15.9	–
COC(=O)c1cn(C(=O)c2ccc(OC)c(OC)c2)c2ccccc12	–	-13	–
CCOC(=O)C1=C(CNCCOc2ccc(OC)cc2)NC(=O)NC1c1ccc2c(c1)OCO2 (configuration not stated)	6.51 µM [rising, single point]	-0.11	–

Taken from above:
Entry of COc1ccc(C(=O)NC2CCCc3c2cnn3-c2cccc(C)c2C)c(OC)n1 (configuration not stated) under AC50 [2]: 1.84 µM [falling, full curve]
Entry of COc1ccc(OC)c(N2CC(O)(c3cccs3)[N+]3=C2SCCC3)c1 (configuration not stated) under cell number change [%]: 5.65
